Reference: patent publication EP1685248B1, “OXIDOREDUCTASE FROM METSCHNIKOWIA ZOBELLII” (IEP GmbH, priority 2003, dated 2005)

The molecules below were run on rekombinante Oxidoreduktase aus Metschnikowia zobellii.
Assay type: biochemical

**Q.** For `CCOC(=O)[C@H](O)c1ccccc1` [(1R)-Ethylmandelat], which “Enantiomerenüberschuss des erhaltenen Produkts” value is on record?
**A.** > 99%

**Q.** `CCOC(=O)CCCC[C@@H](O)CCCl` [(R)-8-Chlor-6-hydroxy-octansäureethylester] was tested. Which “Enantiomerenüberschuss des erhaltenen Produkts” value did it give?
**A.** > 97%

**Q.** `O[C@@H](CCl)c1ccccc1` [(1R)-2-Chlor-1-phenyl-ethan-1-ol] was tested. Which “Enantiomerenüberschuss des erhaltenen Produkts” value did it give?
**A.** > 94%

**Q.** For `CCOC(=O)[C@H](O)CCc1ccccc1` [(R)-2-Hydroxy-4-phenyl-buttersäureethylester], which “Enantiomerenüberschuss des erhaltenen Produkts” value is on record?
**A.** > 90%
